The values below come from US6913917B2, “Anti-cocaine catalytic antibody” (priority 1996, dated 2005).

The series is described as follows: Plasma concentrations at death by HPLC. The note with it: antibody 100 mg/kg. Format: in vivo, rat.

B1: Mab 15A10: mouse monoclonal anti-cocaine catalytic antibody elicited by TSA 1; most active (antibody, V domains shown)
VH: SGPELVKPGASVKVSCKASGYSFTDYNMYWVKQNHGESLEWIAYIDPSNGDTFYNQKFQGKATVTLDKSSSTAFMHLNSLTSEDSAVYYCARGGGLFAFWGQGTLVTVSA
VL: AVVTQESALTTSPGETVTLTCRSSTGTITSDNYANWVQEKPDHLFSGLIGVNNYRPPGVPARFSGSLTGDKAVLTITGAQTEDEAIYFCALWYSNHWVFGGGTKLTVLG
modifications: mouse
Take B1: the “plasma cocaine concentration at death versus control groups” value (result in words) is “not significantly different”. Moreover, under “at death”, the “plasma benzoic acid concentration” value stood at 3.85 ± 0.89 µM and the “plasma concentration of benzoyl ecgonine” value came to 7.68 ± 1.07 mM.
